# Library screen at single concentrations

Sequences of proteins named here, by UniProt entry; tags and fusion partners are left off. Residues count along the entry.
UniProt Q4DA54, 1-478: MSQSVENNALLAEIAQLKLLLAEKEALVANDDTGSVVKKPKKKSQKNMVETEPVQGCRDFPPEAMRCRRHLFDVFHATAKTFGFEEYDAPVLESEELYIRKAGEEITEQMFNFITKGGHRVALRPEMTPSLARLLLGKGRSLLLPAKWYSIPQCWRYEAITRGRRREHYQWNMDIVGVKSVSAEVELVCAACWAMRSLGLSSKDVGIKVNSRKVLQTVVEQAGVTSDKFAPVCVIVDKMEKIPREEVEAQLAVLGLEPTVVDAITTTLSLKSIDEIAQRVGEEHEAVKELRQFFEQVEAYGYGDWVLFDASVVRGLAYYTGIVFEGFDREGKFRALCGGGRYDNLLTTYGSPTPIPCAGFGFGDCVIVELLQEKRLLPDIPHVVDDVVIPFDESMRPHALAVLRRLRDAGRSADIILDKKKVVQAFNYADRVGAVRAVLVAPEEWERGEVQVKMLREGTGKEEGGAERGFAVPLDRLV
UniProt I6X8D2, whole entry: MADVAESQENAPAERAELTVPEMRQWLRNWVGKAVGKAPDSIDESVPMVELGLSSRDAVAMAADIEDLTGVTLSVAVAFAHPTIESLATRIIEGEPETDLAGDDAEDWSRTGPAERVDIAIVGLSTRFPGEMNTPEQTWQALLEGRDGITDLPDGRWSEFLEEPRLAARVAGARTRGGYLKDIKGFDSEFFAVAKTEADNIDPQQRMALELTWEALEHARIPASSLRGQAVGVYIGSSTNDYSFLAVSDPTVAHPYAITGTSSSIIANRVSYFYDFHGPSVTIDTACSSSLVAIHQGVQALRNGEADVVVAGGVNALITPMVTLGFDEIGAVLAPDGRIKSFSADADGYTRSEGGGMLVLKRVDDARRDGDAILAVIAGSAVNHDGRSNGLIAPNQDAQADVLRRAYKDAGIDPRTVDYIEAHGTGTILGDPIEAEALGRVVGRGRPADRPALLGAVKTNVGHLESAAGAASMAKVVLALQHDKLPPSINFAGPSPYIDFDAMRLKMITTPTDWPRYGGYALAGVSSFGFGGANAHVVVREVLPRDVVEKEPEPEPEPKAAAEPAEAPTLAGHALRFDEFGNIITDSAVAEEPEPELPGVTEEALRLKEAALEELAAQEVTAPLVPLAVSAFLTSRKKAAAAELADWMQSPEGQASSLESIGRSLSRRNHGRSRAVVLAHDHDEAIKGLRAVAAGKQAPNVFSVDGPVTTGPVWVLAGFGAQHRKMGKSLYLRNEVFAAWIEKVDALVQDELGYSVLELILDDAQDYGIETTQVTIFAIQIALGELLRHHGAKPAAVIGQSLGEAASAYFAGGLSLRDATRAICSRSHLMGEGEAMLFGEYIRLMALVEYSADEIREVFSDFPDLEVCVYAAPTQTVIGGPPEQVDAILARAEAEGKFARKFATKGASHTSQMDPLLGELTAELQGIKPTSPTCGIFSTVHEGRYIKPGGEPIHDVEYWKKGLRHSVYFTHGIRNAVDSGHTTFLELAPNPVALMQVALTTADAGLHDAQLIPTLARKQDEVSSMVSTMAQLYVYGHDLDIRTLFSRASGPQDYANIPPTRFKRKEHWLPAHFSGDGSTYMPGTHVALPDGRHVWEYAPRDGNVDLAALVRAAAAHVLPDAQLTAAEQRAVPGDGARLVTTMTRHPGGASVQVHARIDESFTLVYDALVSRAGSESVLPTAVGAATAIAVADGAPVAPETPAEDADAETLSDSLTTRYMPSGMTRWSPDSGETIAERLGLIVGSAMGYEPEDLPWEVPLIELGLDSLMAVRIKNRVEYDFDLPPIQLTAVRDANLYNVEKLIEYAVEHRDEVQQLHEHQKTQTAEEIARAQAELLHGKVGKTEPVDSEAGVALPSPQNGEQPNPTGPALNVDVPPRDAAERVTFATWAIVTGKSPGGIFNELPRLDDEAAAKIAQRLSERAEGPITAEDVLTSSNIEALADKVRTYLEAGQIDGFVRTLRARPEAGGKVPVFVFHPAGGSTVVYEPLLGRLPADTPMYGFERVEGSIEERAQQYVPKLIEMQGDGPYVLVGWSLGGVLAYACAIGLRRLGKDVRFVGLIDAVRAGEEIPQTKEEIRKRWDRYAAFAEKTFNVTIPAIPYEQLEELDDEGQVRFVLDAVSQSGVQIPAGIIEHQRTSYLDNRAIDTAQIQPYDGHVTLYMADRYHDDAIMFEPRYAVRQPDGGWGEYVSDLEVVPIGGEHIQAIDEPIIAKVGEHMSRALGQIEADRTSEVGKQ
UniProt P9WNZ1, whole entry: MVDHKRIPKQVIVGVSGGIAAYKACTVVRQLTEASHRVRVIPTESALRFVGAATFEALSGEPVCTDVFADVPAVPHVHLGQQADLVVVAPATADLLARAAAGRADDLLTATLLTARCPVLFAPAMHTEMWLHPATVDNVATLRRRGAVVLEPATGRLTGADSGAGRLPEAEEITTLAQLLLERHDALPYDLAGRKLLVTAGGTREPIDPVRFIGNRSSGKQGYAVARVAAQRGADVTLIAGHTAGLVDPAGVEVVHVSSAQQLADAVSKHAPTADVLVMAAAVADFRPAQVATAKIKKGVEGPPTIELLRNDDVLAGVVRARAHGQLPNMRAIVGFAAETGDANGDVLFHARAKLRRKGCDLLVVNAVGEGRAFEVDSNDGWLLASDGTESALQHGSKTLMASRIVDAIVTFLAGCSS
UniProt Q8IDJ8, 1-583: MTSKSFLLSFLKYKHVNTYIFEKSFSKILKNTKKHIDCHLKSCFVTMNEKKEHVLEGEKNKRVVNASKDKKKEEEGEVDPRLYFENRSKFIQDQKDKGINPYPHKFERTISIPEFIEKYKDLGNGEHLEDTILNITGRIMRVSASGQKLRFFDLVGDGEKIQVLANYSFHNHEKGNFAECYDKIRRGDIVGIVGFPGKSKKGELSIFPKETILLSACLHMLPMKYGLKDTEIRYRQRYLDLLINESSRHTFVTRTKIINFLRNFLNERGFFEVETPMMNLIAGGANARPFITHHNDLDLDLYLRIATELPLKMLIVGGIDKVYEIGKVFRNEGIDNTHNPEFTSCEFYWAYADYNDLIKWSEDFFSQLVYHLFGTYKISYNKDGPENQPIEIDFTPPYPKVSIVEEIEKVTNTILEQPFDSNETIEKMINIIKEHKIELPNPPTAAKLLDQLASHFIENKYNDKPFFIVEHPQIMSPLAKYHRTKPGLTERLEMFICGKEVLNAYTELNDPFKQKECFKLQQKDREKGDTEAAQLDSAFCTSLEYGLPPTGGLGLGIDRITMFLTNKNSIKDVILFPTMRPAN
UniProt P9WFT3, whole entry: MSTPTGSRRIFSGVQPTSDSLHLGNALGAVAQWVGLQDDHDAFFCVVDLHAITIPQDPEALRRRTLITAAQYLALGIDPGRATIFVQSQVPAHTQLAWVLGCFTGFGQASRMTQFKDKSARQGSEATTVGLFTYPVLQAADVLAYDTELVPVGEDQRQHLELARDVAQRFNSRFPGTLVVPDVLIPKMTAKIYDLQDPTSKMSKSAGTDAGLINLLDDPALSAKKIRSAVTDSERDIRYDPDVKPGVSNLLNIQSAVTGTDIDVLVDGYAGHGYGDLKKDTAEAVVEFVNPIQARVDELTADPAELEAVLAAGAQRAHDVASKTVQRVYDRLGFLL

From ChEMBL document CHEMBL3988442, “University of Dundee, Small-Polar-MMV Screening Library” (2021).

Each number is a percent effect as filed. How 0% and 100% were set is not recorded. Most values in the screen are low, and negative values occur. The compounds are a random part of those screened. Two or more numbers in one place are separate tests of the same structure; such repeats can differ widely. A dash means the value is not listed here; it may have been measured.

A: 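Enzyme assay of histidyl-tRNA synthetase; the read-out is not stated. Target: Histidine-tRNA ligase, Trypanosoma cruzi CL Brener (UniProt Q4DA54). Concentration: 30 µM. Higher reads as stronger inhibition (inferred: compounds with an IC50 in retests scored well above the rest). About 69,000 compounds were tested under these conditions; 0.045% (about 31) showed 50% or more at least once.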
B: 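Polyketide synthase Pks13, Mycobacterium tuberculosis (UniProt I6X8D2). Enzyme assay of the thioesterase domain of polyketide synthase 13; the read-out is not stated. Compounds at 30 µM. Higher reads as stronger inhibition (inferred from which compounds were picked for retests). About 67,000 compounds were tested under these conditions; 0.46% (about 300) showed 50% or more at least once.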
C: 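Coenzyme A biosynthesis protein CoaBC, Mycobacterium tuberculosis (UniProt P9WNZ1). Enzyme assay of CoaBC with a phosphate dye (Biomol Green) read at 650 nm. Tested at 30 µM. Higher reads as stronger inhibition, judged from the few compounds that gave an IC50. Most strong results did not repeat in a second test. Size under these conditions: about 67,000 compounds, about 40 of them at 50% or above in at least one test.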
D: 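Cell assay of Leishmania donovani living inside macrophages; the read-out is not stated. Tested at 30 µM. Higher reads as stronger inhibition (inferred: compounds with an IC50 in retests scored well above the rest). About 69,000 compounds were tested under these conditions; 1.5% (about 1,000) showed 50% or more at least once.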
E: 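Lysine-tRNA ligase, Plasmodium falciparum 3D7 (UniProt Q8IDJ8). Enzyme assay of the cytosolic lysyl-tRNA synthetase in 384-well plates, read by luminescence. Tested at 30 µM. Direction is inferred from only a few compounds that gave an IC50; most scored high, so higher reads as stronger inhibition. About 69,000 compounds were tested under these conditions; 0.071% (about 49) showed 50% or more at least once.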
F: 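Enzyme assay of tryptophanyl-tRNA synthetase; the read-out is not stated. Target: Tryptophan-tRNA ligase, Mycobacterium tuberculosis (UniProt P9WFT3). Tested at 10 µM. Higher most likely means stronger inhibition; the record gives no direction and few retests gave an IC50. Of about 65,000 compounds tested this way, about 64 (0.098%) reached 50% or more in at least one test.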

compound,A,B,C,D,E,F
[H][C@@]12OCCN(C(=O)CC3=CCCCC3)[C@@]1([H])CC[C@@H]2OC,-,-,-,25.55%,-,-
CCC(=O)N1CCN(C(=O)NCc2c(C)cc(C)cc2C)CC1,7.937%,-22.64%,-4.752%,-18.03%,4.644%,-4.421%
Fc1cccc(C(NCc2ncc[nH]2)c2ccccc2)c1 (centres unmarked),8.929%,-25.65%,-1.827%,20.66%,7.528%,3.15%
COc1cccc(CN2CCC3(CC2)CCN(C(=O)[C@@H]2CCCO2)C3)c1.O=C(O)C(F)(F)F,-,-,-,-0.3549%,-,-
CCOc1cc(CNC(=O)c2cnn(CC)c2C(F)(F)F)ccn1,0%,13.2%,1.266%,31.17% & 24.4%,9.818%,-0.8862%
CCCNC(=O)N1CCN(Cc2cc(C)no2)CC1,0%,-6.729%,-85.31%,-16.24%,0.8857%,2.242%
O=C(O)C(F)(F)F.[H][C@]12CCN(S(=O)(=O)C3CC3)CC[C@@]1([H])S(=O)(=O)CCN2CC(C)C,-,-,-,20.19% & 14.25%,-,-
CCCc1nc(C)c(C(=O)NS(=O)(=O)c2cccnc2)s1,6.897%,-0.9518%,-3.526%,18.65%,6.673%,-1.675%
CN(C)CCNC(=O)c1cc(-c2cnc(N(C)C)nc2)cn1CC1CC1,6%,-11.2%,-1.976%,16.05%,2.58%,-1.357%
CN(C)C(=O)CO[C@H]1CO[C@@]2(CCN(Cc3ccsc3)C2)C1,4.124%,-5.615%,2.217%,-,-0.2753%,-3.025%
CCOCC1CN(S(=O)(=O)C2CC2)Cc2cnn(C)c21 (centres unmarked),-1.97%,-33.96%,-2.792%,-42.59%,-4.133%,10.78%
CCN1CC2(CC1=O)CN(Cc1ccco1)CCN(C(=O)C(C)C)C2.O=C(O)C(F)(F)F (centres unmarked),-,-,-,2.311%,-,-
CCN(CCn1cccn1)Cc1nc(-c2cccs2)oc1C,4.065%,-6.896%,0.8439%,9.614%,-0.3401%,-9.289%
COc1cccc(CNC(=O)c2cc(C)nc(N3CCCC3)n2)c1,3.509%,30.98%,8.902%,4.164%,-1.55%,-1.364%
Cc1ccccc1C(=O)Nc1cnn(CCN2CCOCC2)c1,10.06%,-3.041%,5.196%,17.38%,-1.326%,-2.574%
Cc1ncc(-c2ccncc2)c(C2CCN(C(=O)c3ccco3)CC2)n1,6.818%,-8.793%,-12.88%,20.21%,1.124%,-6.911%
CC(C)N1CCO[C@@H]2CN(C(=O)NCc3ccccc3)CC[C@@H]2C1,-4.233%,-27.51%,-7.407%,-,-3.262%,-
Cc1cnn(CCNCC(=O)NCC2(c3ccccc3)CCC2)c1,7.17%,-28.82%,3.077%,-1.608%,-0.6856%,-0.5473%
Cc1ccc(C2(O)CCN(C(=O)c3ccc(S(N)(=O)=O)cc3)CC2)nc1,4.95%,1.568%,0.6053%,35.65%,0.8503%,3.577%
CCOCC1CN(C(=O)c2ccncn2)Cc2cnn(CC)c21.O=C(O)C(F)(F)F (centres unmarked),-,-,-,9.835%,-,-
CN(C)C(=O)CN1CCO[C@H]2CN(Cc3ccoc3)C[C@H]21,6.63%,-0.2189%,0.2475%,-,4.89%,-
CC(=O)N1CCN(C(=O)c2cc(C(C)C)no2)[C@H]2CS(=O)(=O)C[C@H]21,5.941%,-3.284%,-0.1211%,-,-18.29%,-1.555%
Clc1cccc2c3c([nH]c12)CCN(Cc1cc2n(n1)CCCNC2)C3,3.03%,-45.3%,3.581%,94.36%,7.58%,-0.9449%
COc1ccc(-c2cc(=O)n3c(n2)CCCCC3)cc1,1.98%,19.35%,5.711%,-12.24%,2.491%,-1.447%
CCOc1ncccc1C(=O)NC1CC(=O)N(CC(F)(F)F)C1 (centres unmarked),3.922%,-33.81%,4.466%,15.93%,1.024%,2.039%
Cc1ccccc1-c1cc(C(=O)NCCN2CCCS2(=O)=O)[nH]n1,1.527%,-7.044%,3.368%,21.73%,-1.477%,1.559%
CCOC1COC2(CCN(CC3CC3)CC2)C1.O=C(O)C(F)(F)F (centres unmarked),-,-,-,-13.57%,-,-
CN(C)CCOCC1CN(C(=O)c2cccn2C)Cc2ccnn2C1 (centres unmarked),-1.961%,20.11%,-13.68%,-,0.2349%,-1.627%
O=C(O)CC(O)(CC(=O)O)C(=O)O.OC1CCN(Cc2ccnc(-c3cccnc3)n2)CC1,-,-,-,10.29%,-,-
COCCc1noc(CN(C)C(=O)c2cccc(N3CCCC3=O)c2)n1,3.759%,-19.86%,2.314%,10.69%,-0.4385%,3.068%
CN(C)c1cc2c(nn1)CCN(C(=O)c1cc3ccccc3o1)C2,14.29%,4.542%,3.226%,10.14%,3.657%,-1.574%
Fc1cccc(-c2nnn3c2COC(CNCc2ccsc2)C3)c1.O=C(O)C(F)(F)F (centres unmarked),-,-,-,-31.74%,-,-

The first 3 entries again:

- [H][C@@]12OCCN(C(=O)CC3=CCCCC3)[C@@]1([H])CC[C@@H]2OC : D: 25.55%
- CCC(=O)N1CCN(C(=O)NCc2c(C)cc(C)cc2C)CC1 : A: 7.937%; B: -22.64%; C: -4.752%; D: -18.03%; E: 4.644%; F: -4.421%
- Fc1cccc(C(NCc2ncc[nH]2)c2ccccc2)c1 (centres unmarked) : A: 8.929%; B: -25.65%; C: -1.827%; D: 20.66%; E: 7.528%; F: 3.15%